Values from PubChem BioAssay AID1259270 (Sanger Institute, 2017)
The deposit covers 160 reagents; below is a part drawn at random. 76 of them (48%) count as active. 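Four separate siRNAs per gene; calls are per siRNA in one cell line, looser than gene-level validation across several lines.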 Further read-outs or replicates are left out here. The record does not give: the amount of reagent, the time to read-out.

- Test: 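Follow-up of kinome hits for synergy with three anchor drugs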 (follow-up of hits)
- System: human SNU-C5 colorectal cancer cells
- Reagent: single siRNA against human genes
- Treatment: anchor drugs added after knock-down: BYL719 1 µM, cetuximab 5 µg/ml or trametinib 10 nM, or DMSO vehicle
- Measurement: 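Cell survival for each replicate, scaled to non-targeting control pool 2 and then averaged; drug given after knock-down; synergy score compares the combined effect with knock-down and drug separately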
- Direction: synergy score with BYL719 and synergy score with cetuximab and synergy score with trametinib: higher = stronger synergy (extra killing) with the drug
- Active means: 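a score above 0.10 for BYL719, cetuximab or trametinib gives a synergy call; no score above 0.10 means no synergy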
- Meaning of the calls: active = synergy with at least one drug; inactive = no synergy with any drug

no.	gene	PubChem SID	synergy score with BYL719	synergy score with cetuximab	synergy score with trametinib	activity call
1	SF3B1	SID152148776	0.0114	-0.0438	-0.09	inactive
2	SF3B1	SID152150545	-0.0898	-0.0754	-0.0691	inactive
3	SF3B1	SID152153930	-0.1	-0.0146	-0.122	inactive
4	SF3B1	SID152156441	-0.239	-0.0158	-0.248	inactive
5	MPP3	SID56478207	0.0623	0.0795	0.0209	inactive
6	MPP3	SID56478208	-0.0747	0.169	0.295	active
7	MPP3	SID56478209	-0.0459	-0.1	0.19	active
8	MPP3	SID56478210	0.164	0.0571	0.143	active
9	GUCY2D	SID56477308	0.041	-0.0501	0.325	active
10	GUCY2D	SID56477309	0.078	0.036	0.132	active
11	GUCY2D	SID56477310	-0.256	-0.14	0.217	active
12	GUCY2D	SID135611754	-0.279	-0.114	-0.0636	inactive
13	KCNH8	SID134236349	-0.265	-0.141	-0.0288	inactive
14	KCNH8	SID134236350	-0.0338	0.103	0.14	active
15	KCNH8	SID134236351	-0.215	-0.0501	0.0812	inactive
16	KCNH8	SID134236352	-0.016	-0.0981	0.333	active
17	MARK3	SID56475931	-0.187	-0.0245	0.122	active
18	MARK3	SID56475932	0.087	-0.000982	0.147	active
19	MARK3	SID56475933	-0.15	-0.0737	-0.326	inactive
20	MARK3	SID56475934	0.0129	-0.051	0.244	active

Not a retest: entries from further up.
no.	gene	PubChem SID	synergy score with BYL719	synergy score with cetuximab	synergy score with trametinib	activity call
11	GUCY2D	SID56477310	-0.256	-0.14	0.217	active
12	GUCY2D	SID135611754	-0.279	-0.114	-0.0636	inactive

Additional results:
no.	gene	PubChem SID	synergy score with BYL719	synergy score with cetuximab	synergy score with trametinib	activity call
21	STK36	SID56477127	-0.121	0.0449	0.0365	inactive
22	STK36	SID56477128	-0.149	-0.106	0.163	active
23	STK36	SID56477129	0.22	0.331	0.379	active
24	STK36	SID135611686	-0.0913	0.0499	0.147	active
25	HSPB8	SID56477019	-0.096	0.0625	0.278	active
26	HSPB8	SID56477020	-0.262	-0.0459	0.0668	inactive
27	HSPB8	SID56477021	-0.109	0.0362	-0.0825	inactive
28	HSPB8	SID56477022	0.103	-0.122	0.0823	active
29	CAMK2N1	SID134276917	0.202	0.116	0.415	active
30	CAMK2N1	SID134276918	0.411	0.102	-0.218	active
31	CAMK2N1	SID134276919	-0.107	0.013	-0.111	inactive
32	CAMK2N1	SID134276920	-0.23	-0.0459	-0.333	inactive
33	CDK6	SID56475655	0.00398	0.0934	0.304	active
34	CDK6	SID56475656	0.0151	-0.0614	-0.0618	inactive
35	CDK6	SID56475657	-0.0245	-0.0501	0.26	active
36	CDK6	SID56475658	0.15	0.0753	-0.0284	active
37	NLK	SID56476715	-0.179	-0.0501	0.224	active
38	NLK	SID56476716	-0.0215	-0.0626	0.0776	inactive
39	NLK	SID56476717	-0.0722	-0.0209	-0.0856	inactive
40	NLK	SID56476718	-0.00672	0.0561	0.0454	inactive
